We go through 36 targets from the supplement of paper PMC7666118.

Amino acid sequences for entries named in this document (tags omitted). A change or cut given only in a name is not applied to a line headed by its entry.
UniProt P28062: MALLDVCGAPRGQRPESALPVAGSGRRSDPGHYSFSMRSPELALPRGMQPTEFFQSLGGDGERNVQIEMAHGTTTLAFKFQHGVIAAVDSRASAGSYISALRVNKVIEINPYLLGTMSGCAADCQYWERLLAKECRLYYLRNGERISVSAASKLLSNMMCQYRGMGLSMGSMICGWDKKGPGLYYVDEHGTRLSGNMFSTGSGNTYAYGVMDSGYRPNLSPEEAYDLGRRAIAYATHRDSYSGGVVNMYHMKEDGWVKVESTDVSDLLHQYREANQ
UniProt Q15274: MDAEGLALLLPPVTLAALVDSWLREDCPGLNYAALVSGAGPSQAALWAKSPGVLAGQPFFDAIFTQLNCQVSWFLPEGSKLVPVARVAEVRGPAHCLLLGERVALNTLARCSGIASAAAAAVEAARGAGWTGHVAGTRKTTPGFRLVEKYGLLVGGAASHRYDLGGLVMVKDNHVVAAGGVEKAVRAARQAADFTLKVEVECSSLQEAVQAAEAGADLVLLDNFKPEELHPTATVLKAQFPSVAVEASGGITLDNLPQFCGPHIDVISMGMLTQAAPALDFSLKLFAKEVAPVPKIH
UniProt P20336: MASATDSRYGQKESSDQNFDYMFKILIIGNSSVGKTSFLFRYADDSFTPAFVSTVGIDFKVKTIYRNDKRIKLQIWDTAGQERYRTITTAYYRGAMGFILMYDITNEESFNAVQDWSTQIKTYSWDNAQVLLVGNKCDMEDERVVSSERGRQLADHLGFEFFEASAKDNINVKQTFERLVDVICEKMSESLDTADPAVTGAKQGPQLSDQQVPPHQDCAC
UniProt Q14914: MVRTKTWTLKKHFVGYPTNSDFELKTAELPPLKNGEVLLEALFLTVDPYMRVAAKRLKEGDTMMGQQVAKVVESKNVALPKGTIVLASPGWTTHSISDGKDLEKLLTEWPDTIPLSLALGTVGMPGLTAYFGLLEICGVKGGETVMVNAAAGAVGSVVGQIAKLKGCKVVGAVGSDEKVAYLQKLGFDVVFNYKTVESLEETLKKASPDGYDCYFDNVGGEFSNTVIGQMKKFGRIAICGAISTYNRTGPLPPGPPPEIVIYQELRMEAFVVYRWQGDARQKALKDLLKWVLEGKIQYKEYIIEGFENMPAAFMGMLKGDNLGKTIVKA
UniProt P61019: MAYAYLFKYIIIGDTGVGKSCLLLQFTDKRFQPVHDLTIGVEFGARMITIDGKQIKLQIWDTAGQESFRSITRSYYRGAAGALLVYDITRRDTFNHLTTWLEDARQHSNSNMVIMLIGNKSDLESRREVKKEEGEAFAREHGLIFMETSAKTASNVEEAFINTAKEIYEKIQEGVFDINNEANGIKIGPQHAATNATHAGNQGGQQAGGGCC
UniProt P06454: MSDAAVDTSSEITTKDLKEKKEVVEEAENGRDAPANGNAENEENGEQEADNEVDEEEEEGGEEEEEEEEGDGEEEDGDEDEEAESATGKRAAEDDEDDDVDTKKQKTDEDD
UniProt P48556: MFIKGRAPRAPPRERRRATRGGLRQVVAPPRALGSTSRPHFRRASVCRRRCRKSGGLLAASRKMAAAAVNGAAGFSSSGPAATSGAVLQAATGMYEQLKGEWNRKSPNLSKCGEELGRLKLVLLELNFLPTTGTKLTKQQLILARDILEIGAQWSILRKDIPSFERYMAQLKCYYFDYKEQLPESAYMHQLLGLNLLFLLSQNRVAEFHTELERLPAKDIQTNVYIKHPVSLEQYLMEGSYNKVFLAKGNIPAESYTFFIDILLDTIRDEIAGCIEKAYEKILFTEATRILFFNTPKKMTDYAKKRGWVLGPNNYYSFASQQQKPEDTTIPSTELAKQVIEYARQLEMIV
UniProt O43502: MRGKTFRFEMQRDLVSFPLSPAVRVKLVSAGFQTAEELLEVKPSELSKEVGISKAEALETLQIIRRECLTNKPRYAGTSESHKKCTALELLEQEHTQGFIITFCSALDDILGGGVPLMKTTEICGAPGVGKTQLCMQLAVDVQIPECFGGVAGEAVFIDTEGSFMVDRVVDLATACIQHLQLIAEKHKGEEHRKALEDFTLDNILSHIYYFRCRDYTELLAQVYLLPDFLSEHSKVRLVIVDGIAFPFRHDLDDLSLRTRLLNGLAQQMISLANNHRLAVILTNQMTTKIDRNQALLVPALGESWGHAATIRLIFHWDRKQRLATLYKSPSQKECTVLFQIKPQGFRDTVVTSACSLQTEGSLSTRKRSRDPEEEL
UniProt Q9Y617: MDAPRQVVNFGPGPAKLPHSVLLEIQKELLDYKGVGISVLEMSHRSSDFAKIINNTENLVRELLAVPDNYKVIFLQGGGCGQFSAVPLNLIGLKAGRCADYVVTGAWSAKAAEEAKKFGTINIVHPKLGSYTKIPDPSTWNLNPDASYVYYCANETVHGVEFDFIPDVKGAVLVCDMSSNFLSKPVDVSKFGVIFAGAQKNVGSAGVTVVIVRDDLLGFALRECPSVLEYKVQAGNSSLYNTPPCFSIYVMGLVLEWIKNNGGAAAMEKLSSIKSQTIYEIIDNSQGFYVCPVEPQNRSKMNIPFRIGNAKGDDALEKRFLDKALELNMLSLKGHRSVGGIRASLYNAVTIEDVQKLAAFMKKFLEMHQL
UniProt Q9H0H5: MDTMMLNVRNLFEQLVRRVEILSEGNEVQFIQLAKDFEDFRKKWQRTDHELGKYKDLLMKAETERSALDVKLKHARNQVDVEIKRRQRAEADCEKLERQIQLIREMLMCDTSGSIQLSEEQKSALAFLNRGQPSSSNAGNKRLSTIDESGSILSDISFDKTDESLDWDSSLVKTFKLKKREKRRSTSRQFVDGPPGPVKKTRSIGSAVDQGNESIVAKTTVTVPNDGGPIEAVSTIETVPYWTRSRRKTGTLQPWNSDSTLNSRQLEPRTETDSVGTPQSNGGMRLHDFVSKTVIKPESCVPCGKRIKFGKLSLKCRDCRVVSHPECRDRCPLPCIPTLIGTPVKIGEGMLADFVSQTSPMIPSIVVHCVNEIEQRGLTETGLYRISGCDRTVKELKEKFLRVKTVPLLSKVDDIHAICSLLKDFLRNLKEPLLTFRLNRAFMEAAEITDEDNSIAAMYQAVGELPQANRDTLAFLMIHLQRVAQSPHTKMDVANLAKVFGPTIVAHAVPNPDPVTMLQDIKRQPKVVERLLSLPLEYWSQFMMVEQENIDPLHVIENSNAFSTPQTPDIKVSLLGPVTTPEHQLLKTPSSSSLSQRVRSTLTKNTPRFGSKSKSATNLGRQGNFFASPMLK
UniProt Q96PK6: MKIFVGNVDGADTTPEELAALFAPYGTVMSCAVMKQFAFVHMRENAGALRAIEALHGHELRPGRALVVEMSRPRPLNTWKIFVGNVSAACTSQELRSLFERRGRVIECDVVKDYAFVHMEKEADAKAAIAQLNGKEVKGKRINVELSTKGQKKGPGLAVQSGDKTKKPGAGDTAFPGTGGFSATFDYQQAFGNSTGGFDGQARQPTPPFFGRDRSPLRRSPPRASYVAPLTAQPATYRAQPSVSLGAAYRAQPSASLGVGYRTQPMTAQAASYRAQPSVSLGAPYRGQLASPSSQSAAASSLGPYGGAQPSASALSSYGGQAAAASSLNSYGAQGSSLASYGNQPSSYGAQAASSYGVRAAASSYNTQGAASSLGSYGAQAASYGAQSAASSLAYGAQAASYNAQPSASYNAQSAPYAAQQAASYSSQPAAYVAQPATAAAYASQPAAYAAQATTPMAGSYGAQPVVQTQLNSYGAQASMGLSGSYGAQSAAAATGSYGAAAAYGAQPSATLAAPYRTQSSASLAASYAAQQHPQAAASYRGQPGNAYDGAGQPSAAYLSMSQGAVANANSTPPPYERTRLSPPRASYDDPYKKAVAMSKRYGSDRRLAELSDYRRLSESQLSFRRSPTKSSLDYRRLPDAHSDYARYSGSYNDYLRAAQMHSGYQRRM
UniProt P40306: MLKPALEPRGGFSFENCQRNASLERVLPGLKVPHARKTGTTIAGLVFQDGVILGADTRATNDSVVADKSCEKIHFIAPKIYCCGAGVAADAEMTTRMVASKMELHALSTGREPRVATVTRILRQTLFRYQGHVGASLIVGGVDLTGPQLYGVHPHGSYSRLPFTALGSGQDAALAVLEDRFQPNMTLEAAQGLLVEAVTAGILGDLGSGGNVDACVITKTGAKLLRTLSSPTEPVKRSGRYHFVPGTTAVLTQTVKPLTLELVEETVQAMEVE
UniProt P51159: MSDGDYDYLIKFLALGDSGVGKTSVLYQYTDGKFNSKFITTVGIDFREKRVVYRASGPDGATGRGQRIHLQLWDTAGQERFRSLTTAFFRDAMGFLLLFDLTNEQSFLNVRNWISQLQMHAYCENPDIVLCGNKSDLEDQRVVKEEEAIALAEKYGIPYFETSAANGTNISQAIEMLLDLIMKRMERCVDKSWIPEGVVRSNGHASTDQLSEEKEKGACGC
UniProt Q96S59, whole entry: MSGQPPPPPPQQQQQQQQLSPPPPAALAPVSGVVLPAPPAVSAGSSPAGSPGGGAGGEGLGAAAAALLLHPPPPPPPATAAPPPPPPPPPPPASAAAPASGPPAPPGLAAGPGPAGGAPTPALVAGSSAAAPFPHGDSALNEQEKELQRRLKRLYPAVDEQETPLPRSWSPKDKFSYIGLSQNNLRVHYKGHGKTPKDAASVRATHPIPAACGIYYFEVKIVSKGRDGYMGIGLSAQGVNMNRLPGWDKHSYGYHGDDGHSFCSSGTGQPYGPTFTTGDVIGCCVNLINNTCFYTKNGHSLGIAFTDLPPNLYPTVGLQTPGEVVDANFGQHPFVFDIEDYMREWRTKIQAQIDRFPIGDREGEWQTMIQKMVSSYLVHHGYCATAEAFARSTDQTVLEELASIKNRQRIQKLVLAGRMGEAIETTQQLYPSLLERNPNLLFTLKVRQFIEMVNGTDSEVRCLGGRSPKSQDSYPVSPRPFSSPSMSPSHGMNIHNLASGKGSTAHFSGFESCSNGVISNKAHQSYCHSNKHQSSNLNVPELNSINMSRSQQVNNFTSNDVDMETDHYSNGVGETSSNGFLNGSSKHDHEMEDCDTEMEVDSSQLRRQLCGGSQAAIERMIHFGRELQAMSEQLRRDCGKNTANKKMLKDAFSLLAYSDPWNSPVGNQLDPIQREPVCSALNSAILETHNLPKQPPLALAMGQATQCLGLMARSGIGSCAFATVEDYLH
UniProt Q14498: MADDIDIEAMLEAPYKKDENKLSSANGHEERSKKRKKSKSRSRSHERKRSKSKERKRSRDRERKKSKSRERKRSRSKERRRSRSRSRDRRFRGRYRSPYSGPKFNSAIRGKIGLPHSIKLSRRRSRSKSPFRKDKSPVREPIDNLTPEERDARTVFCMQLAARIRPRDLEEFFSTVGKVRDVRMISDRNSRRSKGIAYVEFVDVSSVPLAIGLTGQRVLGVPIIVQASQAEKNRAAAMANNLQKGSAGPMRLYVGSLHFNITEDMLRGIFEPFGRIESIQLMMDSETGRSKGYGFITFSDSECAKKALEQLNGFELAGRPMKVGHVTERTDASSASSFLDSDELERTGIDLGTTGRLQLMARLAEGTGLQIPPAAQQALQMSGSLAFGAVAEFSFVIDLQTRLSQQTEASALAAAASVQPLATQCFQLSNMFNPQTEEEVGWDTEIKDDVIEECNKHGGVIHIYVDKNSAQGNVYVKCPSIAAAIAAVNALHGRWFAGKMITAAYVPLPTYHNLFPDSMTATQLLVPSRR
UniProt Q06323: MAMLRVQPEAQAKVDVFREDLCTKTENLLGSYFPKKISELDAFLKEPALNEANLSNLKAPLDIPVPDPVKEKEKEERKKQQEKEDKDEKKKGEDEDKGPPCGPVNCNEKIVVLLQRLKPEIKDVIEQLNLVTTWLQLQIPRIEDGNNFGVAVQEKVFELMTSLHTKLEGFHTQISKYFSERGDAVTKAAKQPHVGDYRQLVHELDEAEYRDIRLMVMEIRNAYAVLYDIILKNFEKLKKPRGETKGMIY
UniProt Q6VN20, whole entry: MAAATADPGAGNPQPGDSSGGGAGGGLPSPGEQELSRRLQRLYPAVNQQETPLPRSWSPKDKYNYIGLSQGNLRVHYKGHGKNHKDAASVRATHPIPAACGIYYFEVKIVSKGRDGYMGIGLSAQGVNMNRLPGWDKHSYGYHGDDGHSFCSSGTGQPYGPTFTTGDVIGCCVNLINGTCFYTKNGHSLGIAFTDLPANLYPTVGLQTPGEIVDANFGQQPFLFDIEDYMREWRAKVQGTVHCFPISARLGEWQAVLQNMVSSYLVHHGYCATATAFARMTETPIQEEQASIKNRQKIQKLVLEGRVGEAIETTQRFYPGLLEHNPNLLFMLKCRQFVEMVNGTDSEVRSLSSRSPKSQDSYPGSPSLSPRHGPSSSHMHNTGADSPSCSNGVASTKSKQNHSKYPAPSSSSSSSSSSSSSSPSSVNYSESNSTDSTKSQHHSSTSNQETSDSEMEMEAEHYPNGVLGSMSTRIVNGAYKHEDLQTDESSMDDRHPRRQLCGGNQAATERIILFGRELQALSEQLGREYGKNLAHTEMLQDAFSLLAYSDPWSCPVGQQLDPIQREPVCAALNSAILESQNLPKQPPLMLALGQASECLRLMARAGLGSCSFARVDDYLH

The other results are listed elsewhere or left out.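 The calls were made as follows: active = dose-dependent thermal stabilisation significant by F-test of dose-response against flat model at 10% FDR; inactive = not significant.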

Compound in this experiment: Nc1nc2c(ncn2[C@@H]2O[C@H](COP(=O)(O)OP(=O)(O)OP(=O)(O)O)[C@@H](O)[C@H]2O)c(=O)[nH]1
In words: dose-dependent thermal stabilisation call (2D-TPP, DLPTP, 10% FDR) (binary (1 = stabilised)); higher = stabilised by the compound. The settings on record: system: Jurkat gel-filtered lysate; concentration range 1-500 µM.

Take PSMB8 (UniProt P28062): the “dose-dependent thermal stabilisation call” value was inactive: 0.

As for QPRT (UniProt Q15274), the “dose-dependent thermal stabilisation call” value was inactive: 0.

As to RAB3A (UniProt P20336), the “dose-dependent thermal stabilisation call” value was active: 1. In the case of PTGR1 (UniProt Q14914) it was active: 1; in that of PRR14L (UniProt Q5THK1), inactive: 0.

QARS (UniProt P47897): the “dose-dependent thermal stabilisation call” value is active: 1. For the target RBPJ (UniProt Q06330), the “dose-dependent thermal stabilisation call” value is inactive: 0. Regarding RAB2A (UniProt P61019), the “dose-dependent thermal stabilisation call” value was inactive: 0. Consider RCOR3 (UniProt Q9P2K3), for which the “dose-dependent thermal stabilisation call” value was inactive: 0. Turning to PTMA (UniProt P06454), the “dose-dependent thermal stabilisation call” value is inactive: 0. Consider PSMD8 (UniProt P48556), for which the “dose-dependent thermal stabilisation call” value was inactive: 0. In the case of PRPS1 (UniProt P60891) it was inactive: 0; in that of RACK1 (UniProt P63244), inactive: 0. With PYM1 (UniProt Q9BRP8) the figure was inactive: 0; with RAD51C (UniProt O43502), active: 1; with PRPSAP2 (UniProt O60256), inactive: 0.

In the case of RANBP2 (UniProt P49792), the “dose-dependent thermal stabilisation call” value is inactive: 0.

Take RBMX (UniProt P38159): the “dose-dependent thermal stabilisation call” value is inactive: 0. Consider RAPGEF1 (UniProt Q13905), for which the “dose-dependent thermal stabilisation call” value is inactive: 0.

For RAB3GAP1 (UniProt Q15042), the “dose-dependent thermal stabilisation call” value is active: 1.

As to PTPN7 (UniProt P35236), the “dose-dependent thermal stabilisation call” value is active: 1. With PSMA8 (UniProt Q8TAA3) the figure was inactive: 0; with PRIM1 (UniProt P49642), inactive: 0; with PSMA4 (UniProt P25789), inactive: 0. Turning to RAB3GAP2 (UniProt Q9H2M9), the “dose-dependent thermal stabilisation call” value was inactive: 0. In the case of PSAT1 (UniProt Q9Y617) it was inactive: 0; in that of RACGAP1 (UniProt Q9H0H5), active: 1. Take RBM14 (UniProt Q96PK6): the “dose-dependent thermal stabilisation call” value is inactive: 0. Regarding PSMB10 (UniProt P40306), the “dose-dependent thermal stabilisation call” value was inactive: 0. In the case of RAB27A (UniProt P51159) it was active: 1. With RANBP9 (UniProt Q96S59) the figure was inactive: 0; with RBM39 (UniProt Q14498), inactive: 0. For RAPGEF2 (UniProt Q9Y4G8), the “dose-dependent thermal stabilisation call” value was inactive: 0. With PSME1 (UniProt Q06323) the figure was inactive: 0; with RANBP10 (UniProt Q6VN20), inactive: 0; with PWP1 (UniProt Q13610), inactive: 0.
